Source: patent US9668497B2, “Flavor-enhancing compounds” (INTERNATIONAL FLAVORS & FRAGRANCES INC., priority 2015, dated 2017)

What was measured:
Assay type in all cases: in vivo
[1] = Cooling enhancement in WS-23 (35 ppm)
Protocol: (§1) The cooling enhancement of Formula I and Na-Formula I in cooling compounds including WS-5 (30 ppm), WS-23 (35 ppm), menthyl lactate (35 ppm), WS-3 (30 ppm) and Cooler 2 (10 ppm) was also evaluated.

[2] = Cooling enhancement in WS-5 (30 ppm)
Protocol: as §1

[3] = Cooling enhancement in menthol (35 ppm), trained sensory panel
Protocol: The flavor compositions of menthol (35 ppm) combined with 7,8-dihydroxy-2-phenyl-4H-chromen-4-one (Formula I) at different concentrations were evaluated by a trained sensory panel. Sensory results are reported in the following. […]

[4] = Cooling enhancement in WS-3 (30 ppm)
Protocol: as §1

[5] = Cooling enhancement in menthyl lactate (35 ppm)
Protocol: as §1

[6] = Cooling enhancement in Cooler 2 (10 ppm)
Protocol: as §1

O=c1cc(-c2ccccc2)oc2c(O)c(O)ccc12 [Formula I, 7,8-dihydroxy-2-phenyl-4H-chromen-4-one]
reduced bitterness: Flavor Profile: accompanying note ([3]; test substance 20 ppm)
harsh burning note: Evaluation on the Cooling Enhancement: accompanying note ([1]; test substance 40 ppm) | Evaluation on the Cooling Enhancement: accompanying note ([1]; test substance 50 ppm) | Evaluation on the Cooling Enhancement: accompanying note ([1]; test substance 100 ppm) | Evaluation on the Cooling Enhancement: accompanying note ([2]; test substance 40 ppm) | Evaluation on the Cooling Enhancement: accompanying note ([2]; test substance 50 ppm) | Evaluation on the Cooling Enhancement: accompanying note ([2]; test substance 100 ppm) | Evaluation on the Cooling Enhancement: accompanying note ([4]; test substance 40 ppm) | Evaluation on the Cooling Enhancement: accompanying note ([4]; test substance 50 ppm) | Evaluation on the Cooling Enhancement: accompanying note ([4]; test substance 100 ppm) | Evaluation on the Cooling Enhancement: accompanying note ([5]; test substance 40 ppm) | Evaluation on the Cooling Enhancement: accompanying note ([5]; test substance 50 ppm) | Evaluation on the Cooling Enhancement: accompanying note ([5]; test substance 100 ppm) | Evaluation on the Cooling Enhancement: accompanying note ([6]; test substance 40 ppm) | Evaluation on the Cooling Enhancement: accompanying note ([6]; test substance 50 ppm) | Evaluation on the Cooling Enhancement: accompanying note ([6]; test substance 100 ppm)
burning note: Flavor Profile: accompanying note ([3]; test substance 30 ppm (slight burning note)) | Flavor Profile: accompanying note ([3]; test substance 50 ppm (harsh burning note)) | Flavor Profile: accompanying note ([3]; test substance 100 ppm (harsh burning note))
bitterness and burning note: Flavor Profile: accompanying note ([3]; test substance 40 ppm (reduced bitterness and burning note))
slight burning note: Evaluation on the Cooling Enhancement: accompanying note ([1]; test substance 30 ppm) | Evaluation on the Cooling Enhancement: accompanying note ([2]; test substance 30 ppm) | Evaluation on the Cooling Enhancement: accompanying note ([4]; test substance 30 ppm) | Evaluation on the Cooling Enhancement: accompanying note ([5]; test substance 30 ppm) | Evaluation on the Cooling Enhancement: accompanying note ([6]; test substance 30 ppm)
